Results published in PMC3338841.
No constants are given. Whether binding was seen depends on the method and setting. In cells and extracts the contact can be indirect. Some entries that bind do so weakly or less than the wild type.

Chains of the proteins cited; added tags and fusions are not shown.
UniProt P57790: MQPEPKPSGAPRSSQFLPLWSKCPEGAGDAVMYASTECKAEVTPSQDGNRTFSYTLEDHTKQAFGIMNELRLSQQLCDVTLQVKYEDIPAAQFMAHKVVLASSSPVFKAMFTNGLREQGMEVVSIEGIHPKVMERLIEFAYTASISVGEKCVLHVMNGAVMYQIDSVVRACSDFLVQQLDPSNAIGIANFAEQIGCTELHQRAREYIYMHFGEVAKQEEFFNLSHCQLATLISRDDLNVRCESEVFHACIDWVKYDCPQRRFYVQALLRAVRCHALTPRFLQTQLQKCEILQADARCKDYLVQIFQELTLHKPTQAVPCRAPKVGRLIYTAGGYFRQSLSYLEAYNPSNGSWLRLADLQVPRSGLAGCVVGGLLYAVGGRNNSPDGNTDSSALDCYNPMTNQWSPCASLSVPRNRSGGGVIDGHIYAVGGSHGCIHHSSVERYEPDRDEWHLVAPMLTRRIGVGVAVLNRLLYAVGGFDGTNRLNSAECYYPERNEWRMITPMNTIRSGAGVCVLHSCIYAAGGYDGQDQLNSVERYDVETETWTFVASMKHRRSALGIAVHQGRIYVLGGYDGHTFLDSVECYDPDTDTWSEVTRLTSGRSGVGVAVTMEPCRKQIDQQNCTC
UniProt B5DF89: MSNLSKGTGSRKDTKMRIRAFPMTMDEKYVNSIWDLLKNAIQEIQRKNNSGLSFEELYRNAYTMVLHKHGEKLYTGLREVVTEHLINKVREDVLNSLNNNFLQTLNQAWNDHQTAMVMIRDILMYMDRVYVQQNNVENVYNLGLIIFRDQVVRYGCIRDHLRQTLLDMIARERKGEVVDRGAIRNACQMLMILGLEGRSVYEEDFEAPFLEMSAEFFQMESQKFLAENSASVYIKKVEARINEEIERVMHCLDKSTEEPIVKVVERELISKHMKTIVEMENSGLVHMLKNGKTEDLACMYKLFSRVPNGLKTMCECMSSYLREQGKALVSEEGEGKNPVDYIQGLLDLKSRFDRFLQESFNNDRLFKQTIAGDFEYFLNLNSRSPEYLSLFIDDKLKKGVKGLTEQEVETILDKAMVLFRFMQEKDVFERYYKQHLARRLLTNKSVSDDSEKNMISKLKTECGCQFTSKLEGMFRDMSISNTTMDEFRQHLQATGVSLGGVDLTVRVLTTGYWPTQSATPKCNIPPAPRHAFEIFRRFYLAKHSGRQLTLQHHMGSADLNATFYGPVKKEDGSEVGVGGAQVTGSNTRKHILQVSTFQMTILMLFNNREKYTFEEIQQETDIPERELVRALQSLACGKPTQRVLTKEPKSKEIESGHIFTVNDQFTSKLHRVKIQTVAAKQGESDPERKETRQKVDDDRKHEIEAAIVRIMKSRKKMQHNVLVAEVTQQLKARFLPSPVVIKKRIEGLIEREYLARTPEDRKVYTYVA

Target: Kelch-like ECH-associated protein 1 (Keap1), endogenous in NBT-II cells (rat (endogenous in NBT-II)) (UniProt P57790)
Experiment: co-IP; IP with anti-Keap1 from cytosols and nuclear extracts of RT-4 and NBT-II cells treated with vehicle, CPDT (50 µM) or SF (8 µM) for 6 h; protein A or G sepharose; IB of Keap1, Nrf2, Cul3 and Rbx1; endogenous proteins

Cul3, endogenous in NBT-II cells (from UniProt B5DF89 1-768)
binding: binds
